# According to patent publication US5891859:
# Amino acid sequences for entries named in this document (tags omitted).
# UniProt P93835, whole entry N143D: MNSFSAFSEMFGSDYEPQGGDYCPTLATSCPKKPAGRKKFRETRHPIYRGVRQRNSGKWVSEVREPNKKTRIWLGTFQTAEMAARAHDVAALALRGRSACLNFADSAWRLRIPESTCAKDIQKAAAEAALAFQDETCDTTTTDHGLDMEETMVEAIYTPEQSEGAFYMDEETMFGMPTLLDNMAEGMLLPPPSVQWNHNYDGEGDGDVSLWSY
# For some assays here: Negatives hold for the conditions tested. For some assays here: At least one result comes from cells or an extract, where the contact may be indirect.
# Legend:
# [1] = molecular target: CBF1 (24 kDa polypeptide) (Arabidopsis thaliana) (UniProt P93835); assay: one hybrid; conditions: protein in cells
# [2] = molecular target: CBF1 (Arabidopsis thaliana) (UniProt P93835); assay: EMSA; conditions: dimer probe 1 ng; 15 mM HEPES pH 7.9, 1 mM EDTA, 30 mM KCl, poly(dI-dC), room temperature; no shift with BSA, vector or antisense extracts; protein in a lysate after overexpression; label: 32P (end-filled, dimer probe)
sequence,measurement,setting,value
GATCAATATACTACCGACATGAGTTCT (double strand) [MT66 COR78-1 C-repeat/DRE],activity on this sequence,"[1]; dimer of MT66, lacZ reporter",active
GATCATTTCATGGCCGACCTGCTTTTT (double strand) [MT50 COR15a C-repeat/DRE],binding result,[2],binds
same,activity on this sequence,"[1]; dimer UAS-lacZ reporter in yeast activated, label: 32P (end-filled, dimer probe)",active
GATCATTTCATGGTATGTCTGCTTTTT (double strand) [MT80 M2COR15a],activity on this sequence,"[1]; dimer UAS-lacZ reporter in yeast not activated, variant of MT50 COR15a C-repeat/DRE",not active
GATCACTTGATGGCCGACCTCTTTTTT (double strand) [MT68 COR15b C-repeat/DRE],activity on this sequence,"[1]; dimer of MT68, lacZ reporter",active
